Reference: PubChem BioAssay AID1671190 (National Center for Advancing Translational Sciences (NCATS), 2021)
“And” between values parts separate entries of the source, which are not always exact repeats. Equal entries are not always repeated. In all, about 580,000 compounds went through this assay and about 6,100 (1.1%) were called active. This list was built around the results that the source calls inconclusive (neither active nor inactive); the mix of calls is not that of the screen. Calls follow the shape of the dose curve; as a rule, active = well fitted inhibition curve with a large enough effect; inconclusive = small, poorly fitted or top-dose-only effect, or another doubt; inactive = no such curve, though single readings can be large or run the other way. Potencies beside an inconclusive call are fits to weak or partial responses and may not hold up.

The chains behind the UniProt entries cited, without tags or fusion partners. Where a name states a change or a piece, a line headed by the entry shows the natural chain unless it says otherwise.
UniProt P18054: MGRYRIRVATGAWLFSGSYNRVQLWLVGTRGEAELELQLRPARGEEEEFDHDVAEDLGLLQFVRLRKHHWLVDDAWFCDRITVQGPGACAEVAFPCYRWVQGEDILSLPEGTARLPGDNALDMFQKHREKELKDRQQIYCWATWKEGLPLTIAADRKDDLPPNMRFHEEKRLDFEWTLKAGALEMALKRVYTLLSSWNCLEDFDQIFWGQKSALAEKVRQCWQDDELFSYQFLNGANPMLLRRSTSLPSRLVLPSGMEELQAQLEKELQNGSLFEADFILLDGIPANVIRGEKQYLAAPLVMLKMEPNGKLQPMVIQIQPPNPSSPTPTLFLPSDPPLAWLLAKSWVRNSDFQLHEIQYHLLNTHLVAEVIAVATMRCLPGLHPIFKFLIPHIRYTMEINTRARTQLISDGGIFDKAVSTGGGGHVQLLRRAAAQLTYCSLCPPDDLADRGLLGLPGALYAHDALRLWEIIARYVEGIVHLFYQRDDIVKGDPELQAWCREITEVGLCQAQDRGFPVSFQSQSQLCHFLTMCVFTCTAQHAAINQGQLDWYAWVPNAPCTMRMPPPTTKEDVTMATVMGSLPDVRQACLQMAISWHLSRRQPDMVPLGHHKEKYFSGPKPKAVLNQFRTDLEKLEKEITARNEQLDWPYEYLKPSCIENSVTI

biological target: Polyunsaturated fatty acid lipoxygenase ALOX12 (Homo sapiens) (UniProt P18054); test: Primary qHTS assay for inhibitors of human arachidonate 12S-lipoxygenase (ALOX12): Round 2; conditions: purified 12hLO, xylenol orange hydroperoxide absorbance; series mostly up to 108 µM
Outline: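 Purified human 12hLO (150 nM final) in 25 mM Hepes, 0.01% Triton X-100, pH 7.0 was preincubated 15 min at room temperature with compound. Then 40 uM arachidonic acid was added, 30 min. Hydroperoxide was read by Fe-XO absorbance ratio 573/405 nm.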
Potency is read from the fitted curve at half-maximal effect.

Structure (SMILES)	Potency
CN1CCCC(OC(=O)c2ccc3c(c2)OCCO3)C1 (configuration not stated)	inconclusive: 100 µM [inhibitor, single point]
CNc1ccc(Oc2ccccc2)cc1	inconclusive: 100 µM [inhibitor, single point]
O=C(Nc1ccc2ccccc2n1)c1cccc[n+]1[O-]	inconclusive: 12.6 µM [inhibitor, full curve, poor fit]
O=C(O)C/C(=C/c1cccc(Br)c1)c1nc2ccccc2s1	active: 28.2 µM
Oc1c(CN2CCN(c3ccc(F)cc3)CC2)cc(Cl)c2cccnc12	inconclusive: 11.2 µM [inhibitor, full curve]
O=C(c1cnccn1)N1CC(F)(F)C[C@H]1c1nc(C2CC2)no1	inactive
COc1ccc(C(=O)NC(=S)N2CCN(c3ccccc3OC)CC2)cc1	inactive
O=[N+]([O-])c1ccc(N2CCOCC2)cc1N1CCCCC1	inconclusive: 89.1 µM [inhibitor, single point]
O=c1[nH]c(NCCCO)nc2c1C1(CCCC1)Cc1ccccc1-2	inconclusive: 70.8 µM [inhibitor, partial curve, poor fit]
CC1C(=O)C(C)(C)C(=O)OC1c1ccccc1 (configuration not stated)	inconclusive: 63.1 µM [inhibitor, partial curve, poor fit]
O=C(c1cc(-c2ccccc2Cl)nc2ccccc12)N1CCCC1	inactive
COc1cc(NS(=O)(=O)c2ccc(NC(=S)NC(=O)c3ccccc3)cc2)nc(OC)n1	inconclusive: 39.8 µM [inhibitor, partial curve, poor fit]
N#Cc1c(NC(=O)c2ccn(C(F)F)n2)sc2c1CCCC2	inactive
CC(=O)c1ccc(C(=O)O)s1	active: 15.8 µM
O=C(CCl)N(CCc1ccccc1)Cc1cccs1	inconclusive: 15.8 µM [inhibitor, full curve, poor fit]
CCCCCCCCC(=O)NCCC1=CCCCC1	inconclusive: 44.7 µM [inhibitor, partial curve, poor fit]
CCOC1=C2[C@H](c3ccccc3F)N(S(=O)(=O)c3ccc(C)cc3)C[C@H]2n2c(=O)n(-c3ccccc3)c(=O)n2C1	inconclusive: 100 µM [inhibitor, single point]
O=C1CC(=O)N(CCc2ccc(F)cc2)C(=O)N1	inconclusive: 39.8 µM [inhibitor, partial curve, poor fit]
Cc1ccc(C(C)NC(=S)NC2CCCCC2)cc1C (configuration not stated)	inconclusive: 50.1 µM [inhibitor, partial curve, poor fit]
Cc1nn(Cc2c(F)cccc2Cl)c(=O)c2ccccc12	inactive
CCCCCCCCN1[C@@H](CC(=O)OCC)c2cc(C(F)(F)F)ccc2S1(=O)=O	inconclusive: 100 µM [inhibitor, single point]

Some of the entries above in a different format.
Structure (SMILES),Potency
CN1CCCC(OC(=O)c2ccc3c(c2)OCCO3)C1 (configuration not stated),"inconclusive: 100 µM [inhibitor, single point]"
CNc1ccc(Oc2ccccc2)cc1,"inconclusive: 100 µM [inhibitor, single point]"

(cont.)

Structure (SMILES)	Potency
Cc1ccc(-c2cc(C(=O)Nc3cccnc3)c3ccccc3n2)s1	inconclusive: 56.2 µM [inhibitor, partial curve, poor fit]
CCOC(=O)c1sc(N)nc1C(C)(C)C	inconclusive: 28.2 µM [inhibitor, partial curve, poor fit]
c1coc(CNC2CCCCC2)c1	inactive and inconclusive: 501 nM [inhibitor, full curve, poor fit]
Cc1cc(-c2ccc(S(=O)(=O)NCc3ccc(Cl)cc3)cc2)on1	inconclusive: 89.1 µM [inhibitor, single point]
Cc1cccc2sc(N(CCCN(C)C)C(=O)c3ccc4ncsc4c3)nc12	inconclusive: 35.5 µM [inhibitor, partial curve, poor fit]
COc1ccccc1C1/C(=C(/O)c2cnn(-c3ccccc3)c2C)C(=O)C(=O)N1CCN(C)C (configuration not stated)	inactive
O=C(Nc1ccc(F)c(Cl)c1)N1CC=C(c2c[nH]c3ccccc23)CC1	inconclusive: 35.5 µM [inhibitor, full curve, poor fit]
CN(C)CCN(C(=O)c1ccc(S(=O)(=O)N2CCc3ccccc32)cc1)c1nc2ccc(F)cc2s1	inconclusive: 44.7 µM [inhibitor, partial curve]
Cc1cc(C)c(C)c(OCC(O)CN2CCN(c3ccccn3)CC2)c1 (configuration not stated)	inconclusive: 44.7 µM [inhibitor, partial curve]
CCC1(C)Cc2c(sc3[nH]c(=S)[nH]c(=S)c23)CO1 (configuration not stated)	inconclusive: 39.8 µM [inhibitor, single point]
CC(C)Cc1cc(C(=O)N[C@H](C2CCNCC2)C2CC(O)C2)nc(N)n1 (some centres not stated)	inconclusive: 20 µM [inhibitor, full curve]
COc1ccc(CCNc2oc(-c3ccc(OC)c(OC)c3)nc2C#N)cc1OC	inconclusive: 158 µM [inhibitor, partial curve, poor fit]
CC(C)C(=O)Nc1ccccc1-c1nc2ccccc2[nH]c1=O	inactive
O=C(NC1CCCCC1)C(c1ccncc1)N(Cc1ccc2c(c1)OCO2)C(=O)c1cnsn1 (configuration not stated)	inconclusive: 70.8 µM [inhibitor, partial curve, poor fit]
O=C(NCCN1CCCCCC1)C1CCC1	inactive
CCOc1ccc(/C=C/c2nc(C#N)c(N3CCN(C)CC3)o2)cc1	inconclusive: 28.2 µM [inhibitor, partial curve, poor fit]
O=C(NC1CCN(CCc2c[nH]c3ccccc23)CC1)c1ccccc1	inconclusive: 11.4 µM [inhibitor, single point] and inconclusive: 44.7 µM [inhibitor, partial curve]
COC[C@H]1CCCN1[C@@H]1[C@H](O)[C@H](CO)O[C@@H]1CNC(=O)Nc1ccccc1	inconclusive: 22.4 µM [inhibitor, partial curve, poor fit]
Cc1ccc(CN2CCCCCNC(=O)CC2c2ccccc2)s1 (configuration not stated)	inactive
CCOc1ccc(OCC(=O)OCC(=O)N2CCN(C(=O)c3ccco3)CC2)cc1	inactive
CCCCOC(=O)/C(C#N)=C/c1c[nH]c2ccccc12	inconclusive: 44.7 µM [inhibitor, partial curve, poor fit]
